Results: PMC9584352, “Conserved Pib2 regions have distinct roles in TORC1 regulation at the vacuole” (Journal of Cell Science, 2022)
These are yes or no findings as the source states them, for the method shown.

Amino acid sequences for entries named in this document (tags omitted). Residues count along the entry.
UniProt Q15075, residues 1347-1411: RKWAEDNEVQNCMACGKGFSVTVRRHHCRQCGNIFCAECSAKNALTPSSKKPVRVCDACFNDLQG

Assays:
Assay in all cases: SEC-MALS; Superdex 75 10/300 in 20 mM Tris-HCl pH 7.4, 150 mM NaCl, 1.93 mM β-mercaptoethanol, room temperature; 500 µl of each protein loaded at 50 or 100 µM as indicated; detectors at 25°C; both purified
[1] = biological target: EEA1 1347–1411 (UniProt Q15075)
[2] = biological target: Pib2 419–625 (S. cerevisiae) (UniProt P53191)
[3] = biological target: Pib2 442–625 (S. cerevisiae) (UniProt P53191)
[4] = biological target: Pib2 437–542 (S. cerevisiae) (UniProt P53191)

Q: Which binding [1] does the source give for “EEA1 1347–1411 (from UniProt Q15075 1347-1411) (domain or fragment)” here?
A: no binding (tested: 50 or 100 µM loaded, as indicated)

B1: Pib2 419–625 (domain or fragment, UniProt P53191 419-625)
chain: NSIPNSDRINLIPTISNRNSARVNPPTKDHWIPDSKRNSCRYCHKPFTLWERKHHCRHCGDIFCQDHLRHWLYLDSQANFIMINELNNGGINGGGTLCKICDDCLVEYENLSTTNHNANTNEDNINVEEGEDDDNDNRKKLRNYYKNRQMNALFRPKKGGSSQEHATVDRDTTTPIQVKSNDEEADNENTGGEQEEGNDVLGSVIGS
Q: Which binding [2] does the source give for B1 here?
A: no binding (tested: 50 or 100 µM loaded, as indicated)

B2: Pib2 442–625 (domain or fragment, UniProt P53191 442-625)
chain: NPPTKDHWIPDSKRNSCRYCHKPFTLWERKHHCRHCGDIFCQDHLRHWLYLDSQANFIMINELNNGGINGGGTLCKICDDCLVEYENLSTTNHNANTNEDNINVEEGEDDDNDNRKKLRNYYKNRQMNALFRPKKGGSSQEHATVDRDTTTPIQVKSNDEEADNENTGGEQEEGNDVLGSVIGS
Q: With B2 as the molecule, how does the binding [3] read?
A: no binding (tested: 50 or 100 µM loaded, as indicated)

B3: Pib2 437–542 (domain or fragment, UniProt P53191 437-542)
chain: NSARVNPPTKDHWIPDSKRNSCRYCHKPFTLWERKHHCRHCGDIFCQDHLRHWLYLDSQANFIMINELNNGGINGGGTLCKICDDCLVEYENLSTTNHNANTNEDN
Q: How did the binding [4] turn out when B3 was run?
A: no binding (tested: 50 or 100 µM loaded, as indicated)
